According to article PMC11425265:
These are yes or no findings as the source states them, for the method shown. In cells and extracts the contact can be indirect. Some entries that bind do so weakly or less than the wild type.

Sequences of proteins named here, by UniProt entry; tags and fusion partners are left off.
UniProt P62316: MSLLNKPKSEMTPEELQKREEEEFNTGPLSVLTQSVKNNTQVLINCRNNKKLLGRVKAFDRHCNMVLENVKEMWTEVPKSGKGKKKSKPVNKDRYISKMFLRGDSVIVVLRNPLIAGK

Target: SNRPD2 (PD2) (human) (UniProt P62316)
Experiment: co-IP; independent IP assay in HCCLM3 cells; bait and antibody not told in the text shown

binding: binds
B1: HNRNPL (PL) (protein, UniProt P14866 1-589)
chain: MSRRLLPRAEKRRRRLEQRQQPDEQRRRSGAMVKMAAAGGGGGGGRYYGGGSEGGRAPKRLKTDNAGDQHGGGGGGGGGAGAAGGGGGGENYDDPHKTPASPVVHIRGLIDGVVEADLVEALQEFGPISYVVVMPKKRQALVEFEDVLGACNAVNYAADNQIYIAGHPAFVNYSTSQKISRPGDSDDSRSVNSVLLFTILNPIYSITTDVLYTICNPCGPVQRIVIFRKNGVQAMVEFDSVQSAQRAKASLNGADIYSGCCTLKIEYAKPTRLNVFKNDQDTWDYTNPNLSGQGDPGSNPNKRQRQPPLLGDHPAEYGGPHGGYHSHYHDEGYGPPPPHYEGRRMGPPVGGHRRGPSRYGPQYGHPPPPPPPPEYGPHADSPVLMVYGLDQSKMNCDRVFNVFCLYGNVEKVKFMKSKPGAAMVEMADGYAVDRAITHLNNNFMFGQKLNVCVSKQPAIMPGQSYGLEDGSCSYKDFSESRNNRFSTPEQAAKNRIQHPSNVLHFFNAPLEVTEENFFEICDELGVKRPSSVKVFSGKSERSSSGLLEWESKSDALETLGFLNHYQMKNPNGPYPYTLKLCFSTAQHAS
